# Laboratory results as given in the supplement of paper PMC3741180, “A Novel High Throughput Biochemical Assay to Evaluate the HuR Protein-RNA Complex Formation” (PLoS ONE, 2013).
# By UniProt entry, the sequences of proteins in these tests, tags left out.
# UniProt Q15717, whole entry: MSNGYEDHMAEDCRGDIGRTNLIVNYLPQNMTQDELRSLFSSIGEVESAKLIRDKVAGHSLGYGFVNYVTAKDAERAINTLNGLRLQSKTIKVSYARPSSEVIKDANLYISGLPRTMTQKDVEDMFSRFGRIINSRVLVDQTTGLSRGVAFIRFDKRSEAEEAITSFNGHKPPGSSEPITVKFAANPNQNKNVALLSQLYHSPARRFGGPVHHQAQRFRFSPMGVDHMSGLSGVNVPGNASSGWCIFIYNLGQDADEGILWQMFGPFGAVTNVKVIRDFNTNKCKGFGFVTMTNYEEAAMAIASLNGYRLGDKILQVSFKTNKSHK
# The list shows a part of the results. Most values lie within the scatter of the assay; repeated measurements hardly agree.
# Target: HuR (ELAVL1) - TNFalpha ARE RNA complex (UniProt Q15717)
# Test: AlphaScreen HuR-RNA complex signal Z-score relative to positive controls (secondary screen) (Z-score (SD units of positive control)); higher = more complex signal
# Details: screen stage: secondary re-screen
row,SMILES,AlphaScreen HuR-RNA complex signal Z-score
1,CC1(C)OC(=O)NC1=O,0.883
2,Cc1onc(-c2ccccc2Cl)c1C(=O)N[C@@H]1C(=O)N2[C@@H]1SC(C)(C)[C@@H]2C(=O)O,0.906
3,CC(=O)N[C@H]1[C@H]([C@H](O)[C@H](O)CO)OC(O)(C(=O)O)C[C@@H]1O (mixture of isomers),1.08
4,CCN(CC)C(=O)N1CCN(C)CC1,1.01
